# In the supplement of paper PMC8728848:
# Some of the results follow.
# Key:
# Experiment in all cases: glycan array binding signal (z-score within array); higher = stronger binding
# Conditions in all cases: glycan notation: IUPAC condensed, linker removed
# Fuc(a1-2)Gal = molecular target: Fuc(a1-2)Gal
# Method in brief: (§1)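 Glycan array data were curated from 3228 arrays in the Consortium for Functional Glycomics database and kept only where the protein sequence was available. Glycan names were converted to IUPAC-condensed notation, and columns mapping to the same glycan were averaged. The binding signal is a within-array Z-score, averaged across arrays of the same protein sequence at different concentrations or buffers and across linkers. Negative Z-scores can be read as non-binding.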
# Fuc(a1-2)Gal(b1-3)GalNAc = molecular target: Fuc(a1-2)Gal(b1-3)GalNAc
# Method in brief: as §1
# [1] = molecular target: Fuc(a1-2)Gal(b1-3)GalNAc(a1-3)[Fuc(a1-2)]Gal(b1-4)Glc
# Method in brief: as §1
# [2] = molecular target: Fuc(a1-2)Gal(b1-3)GalNAc(a1-3)[Fuc(a1-2)]Gal(b1-4)GlcNAc
# Method in brief: as §1
# [3] = molecular target: Fuc(a1-2)Gal(b1-3)GalNAc(b1-3)Gal
# Method in brief: as §1
# [4] = molecular target: Fuc(a1-2)Gal(b1-3)GalNAc(b1-3)Gal(a1-4)Gal(b1-4)Glc
# Method in brief: as §1
# [5] = molecular target: Fuc(a1-2)Gal(b1-3)GalNAc(b1-4)[Neu5Ac(a2-3)]Gal(b1-4)Glc
# Method in brief: as §1
# Fuc(a1-2)Gal(b1-3)GlcNAc = molecular target: Fuc(a1-2)Gal(b1-3)GlcNAc
# Method in brief: as §1
# [6] = molecular target: Fuc(a1-2)Gal(b1-3)GlcNAc(b1-2)Man(a1-3)[Fuc(a1-2)Gal(b1-3)GlcNAc(b1-2)Man(a1-6)]Man(b1-4)GlcNAc(b1-4)GlcNAc
# Method in brief: as §1
# [7] = molecular target: Fuc(a1-2)Gal(b1-3)GlcNAc(b1-2)Man(a1-3)[Fuc(a1-2)Gal(b1-3)GlcNAc(b1-2)Man(a1-6)]Man(b1-4)GlcNAc(b1-4)[Fuc(a1-6)]GlcNAc
# Method in brief: as §1
# [8] = molecular target: Fuc(a1-2)Gal(b1-3)GlcNAc(b1-3)Gal(b1-4)Glc
# Method in brief: as §1
# [9] = molecular target: Fuc(a1-2)Gal(b1-3)GlcNAc(b1-3)GalNAc
# Method in brief: as §1
# [10] = molecular target: Fuc(a1-2)Gal(b1-3)GlcNAc(b1-3)[Fuc(a1-2)Gal(b1-3)GlcNAc(b1-6)]GalNAc
# Method in brief: as §1
# [11] = molecular target: Fuc(a1-2)Gal(b1-3)GlcNAc(b1-3)[Gal(b1-4)GlcNAc(b1-6)]Gal(b1-4)Glc
# Method in brief: as §1
# [12] = molecular target: Fuc(a1-2)Gal(b1-3)GlcNAc(b1-3)[Neu5Ac(a2-6)Gal(b1-4)GlcNAc(b1-6)]Gal(b1-4)Glc
# Method in brief: as §1
# [13] = molecular target: Fuc(a1-2)Gal(b1-3)GlcNAc6S
# Method in brief: as §1
# [14] = molecular target: Fuc(a1-2)Gal(b1-3)[Fuc(a1-4)]GlcNAc
# Method in brief: as §1
# [15] = molecular target: Fuc(a1-2)Gal(b1-3)[Fuc(a1-4)]GlcNAc(b1-2)Man(a1-3)[Fuc(a1-2)Gal(b1-3)[Fuc(a1-4)]GlcNAc(b1-2)Man(a1-3)]Man(b1-4)GlcNAc(b1-4)GlcNAc
# Method in brief: as §1
# [16] = molecular target: Fuc(a1-2)Gal(b1-3)[Fuc(a1-4)]GlcNAc(b1-2)Man(a1-3)[Fuc(a1-2)Gal(b1-3)[Fuc(a1-4)]GlcNAc(b1-2)Man(a1-6)]Man(b1-4)GlcNAc(b1-4)[Fuc(a1-6)]GlcNAc(b1-4)[Fuc(a1-6)]GlcNAc
# Method in brief: as §1
# [17] = molecular target: Fuc(a1-2)Gal(b1-3)[Fuc(a1-4)]GlcNAc(b1-3)[Fuc(a1-3)[Gal(b1-4)]GlcNAc(b1-6)]Gal(b1-4)Glc
# Method in brief: as §1
# [18] = molecular target: Fuc(a1-2)Gal(b1-3)[Fuc(a1-4)]GlcNAc(b1-3)[Gal(b1-4)GlcNAc(b1-6)]Gal(b1-4)Glc
# Method in brief: as §1
# [19] = molecular target: Fuc(a1-2)Gal(b1-4)Fuc(a1-3)]GlcNAc(b1-2)Man(a1-3)[Fuc(a1-2)Gal(b1-4)[Fuc(a1-3)]GlcNAc(b1-2)Man(a1-6)]Man(b1-4)GlcNAc(b1-4)GlcNAc
# Method in brief: as §1
# Fuc(a1-2)Gal(b1-4)Glc = molecular target: Fuc(a1-2)Gal(b1-4)Glc
# Method in brief: as §1
# Fuc(a1-2)Gal(b1-4)Glc6S = molecular target: Fuc(a1-2)Gal(b1-4)Glc6S
# Method in brief: as §1
# Fuc(a1-2)Gal(b1-4)GlcNAc = molecular target: Fuc(a1-2)Gal(b1-4)GlcNAc
# Method in brief: as §1
# [20] = molecular target: Fuc(a1-2)Gal(b1-4)GlcNAc(b1-2)Man
# Method in brief: as §1
# [21] = molecular target: Fuc(a1-2)Gal(b1-4)GlcNAc(b1-2)Man(a1-3)[Fuc(a1-2)Gal(b1-4)GlcNAc(b1-2)Man(a1-6)]Man(b1-4)GlcNAc(b1-4)GlcNAc
# Method in brief: as §1
# [22] = molecular target: Fuc(a1-2)Gal(b1-4)GlcNAc(b1-2)Man(a1-3)[Fuc(a1-2)Gal(b1-4)GlcNAc(b1-2)Man(a1-6)]Man(b1-4)GlcNAc(b1-4)[Fuc(a1-6)]GlcNAc
# Method in brief: as §1
# [23] = molecular target: Fuc(a1-2)Gal(b1-4)GlcNAc(b1-2)[Fuc(a1-2)Gal(b1-4)GlcNAc(b1-4)]Man(a1-3)[Fuc(a1-2)Gal(b1-4)GlcNAc(b1-2)Man(a1-6)]Man(b1-4)GlcNAc(b1-4)GlcNAc
# Method in brief: as §1
# [24] = molecular target: Fuc(a1-2)Gal(b1-4)GlcNAc(b1-3)Gal(b1-4)GlcNAc
# Method in brief: as §1
binder,measurement,setting,value
SabA (Helicobacter pylori) (protein) MGSSHHHHHHSSGLVPRGSHMENLYFQGEDNGFFVSAGYQIGEAVQMVKNTGELKNLNEKYEQLSQYLNQVASLKQSIQNANNIELVNSSLNYLKSFTNNNYNSTTQSPIFNAVQAVITSVLGFWSLYAGNYFTFFVGKKVGDSGQPASVQGNPPFKTIIENCSGIENCAMDQTTYDKMKKLAEDLQAAQTNSATKGNNLCALSGCAATDSTSNPPNSTVSNALNLAQQLMDLIANTKTAMMWKNIVISGVSNTSGAITSTNYPTQYAVFNNIKAMIPILQQAVTLSQSNHTLSASLQAQATGSQTNPKFAKDIYTFAQNQKQVISYAQDIFNLFNSIPAEQYKYLEKAYLKIPNAGSTPTNPYRQVVNLNQEVQTIKNNVSYYGNRVDAALSVARDVYNLKSNQAEIVTAYNDAKTLSEEISKLPHNQVNTKDIVTLPYDKNAPAAGQSNYQINPEQQSNLNQALAAMSNNPFKKVGMISSQNNNGA,glycan array binding signal (z-score),Fuc(a1-2)Gal,-0.009
same,glycan array binding signal (z-score),Fuc(a1-2)Gal(b1-3)GalNAc,-0.483
same,glycan array binding signal (z-score),[1],-0.405
same,glycan array binding signal (z-score),[2],0.026
same,glycan array binding signal (z-score),[3],-0.181
same,glycan array binding signal (z-score),[4],0.314
same,glycan array binding signal (z-score),[5],0.208
same,glycan array binding signal (z-score),Fuc(a1-2)Gal(b1-3)GlcNAc,-0.513
same,glycan array binding signal (z-score),[6],1.36
same,glycan array binding signal (z-score),[7],1.55
same,glycan array binding signal (z-score),[8],0.232
same,glycan array binding signal (z-score),[9],-1.08
same,glycan array binding signal (z-score),[10],-0.363
same,glycan array binding signal (z-score),[11],0.126
same,glycan array binding signal (z-score),[12],0.04
same,glycan array binding signal (z-score),[13],-0.047
same,glycan array binding signal (z-score),[14],-0.148
same,glycan array binding signal (z-score),[15],3.91
same,glycan array binding signal (z-score),[16],0.785
same,glycan array binding signal (z-score),[17],-0.216
same,glycan array binding signal (z-score),[18],0.025
same,glycan array binding signal (z-score),[19],0.327
same,glycan array binding signal (z-score),Fuc(a1-2)Gal(b1-4)Glc,0.228
same,glycan array binding signal (z-score),Fuc(a1-2)Gal(b1-4)Glc6S,0.21
same,glycan array binding signal (z-score),Fuc(a1-2)Gal(b1-4)GlcNAc,-0.378
same,glycan array binding signal (z-score),[20],0.056
same,glycan array binding signal (z-score),[21],0.326
same,glycan array binding signal (z-score),[22],2.49
same,glycan array binding signal (z-score),[23],0.41
same,glycan array binding signal (z-score),[24],-0.981

# A section from further up, for reference:
binder,measurement,setting,value
SabA (Helicobacter pylori) (protein) MGSSHHHHHHSSGLVPRGSHMENLYFQGEDNGFFVSAGYQIGEAVQMVKNTGELKNLNEKYEQLSQYLNQVASLKQSIQNANNIELVNSSLNYLKSFTNNNYNSTTQSPIFNAVQAVITSVLGFWSLYAGNYFTFFVGKKVGDSGQPASVQGNPPFKTIIENCSGIENCAMDQTTYDKMKKLAEDLQAAQTNSATKGNNLCALSGCAATDSTSNPPNSTVSNALNLAQQLMDLIANTKTAMMWKNIVISGVSNTSGAITSTNYPTQYAVFNNIKAMIPILQQAVTLSQSNHTLSASLQAQATGSQTNPKFAKDIYTFAQNQKQVISYAQDIFNLFNSIPAEQYKYLEKAYLKIPNAGSTPTNPYRQVVNLNQEVQTIKNNVSYYGNRVDAALSVARDVYNLKSNQAEIVTAYNDAKTLSEEISKLPHNQVNTKDIVTLPYDKNAPAAGQSNYQINPEQQSNLNQALAAMSNNPFKKVGMISSQNNNGA,glycan array binding signal (z-score),Fuc(a1-2)Gal(b1-4)Glc6S,0.21
same,glycan array binding signal (z-score),Fuc(a1-2)Gal(b1-4)GlcNAc,-0.378
same,glycan array binding signal (z-score),[20],0.056
same,glycan array binding signal (z-score),[21],0.326
same,glycan array binding signal (z-score),[22],2.49
same,glycan array binding signal (z-score),[23],0.41
same,glycan array binding signal (z-score),[24],-0.981
